For one molecule, binding results are on record in patent US20060233788A1.

The assay addresses human ghrelin peptide spanning amino acids 4-20 (human). The assay can be described thus: FLIPR assay, peptide (100 nM) competes with hGhrelin for the Fab (5 nM).

Results are given in words; binding and its absence hold for the method and conditions named. Some entries that bind do so weakly or less than the wild type.

B1: Fab 4641 (Fab, V domains shown)
VH: QVQLQQSRPELVRPGASVKMSCRASAYTFTTYWMHWVRQRPGQGLEWIGMIDPSNSDTWLNQKFKDKATLNVDRSSNTAYMQLTSLTSEDSAVYYCARTGFDYWGQGTTLTVSS
VL: DVVMTQTPLSLPVSLGDQASISCRSSQSLVHSDGNTYLHWYLQKPGQSPKLLIYKVSNRFSGVPDRFSGSGSGTDFTLKISRVEAEDLGVYFCSQSTYVSYTFGGGTKLEIKR
Consider B1, for which the binding result is “binds”.
